Laboratory results as given in patent publication US9051277B2, “Phenyl(oxy/thio)alkanol derivatives” (Bayer Intellectual Property GmbH, priority 2009, dated 2015).
Some of these results come from one statement about several compounds together.

Key:
Format in all cases: in vivo
[1] = test system: Sphaerotheca fuliginea; assay: Sphaerotheca test (cucumber)/protective; details: protective, active compound concentration 500 ppm, evaluation 7 days after inoculation
[2] = test system: Leptosphaeria nodorum; assay: Leptosphaeria nodorum test (wheat)/protective; details: protective, active compound concentration 500 ppm, evaluation 7-9 days after inoculation
[3] = test system: Alternaria solani; assay: Alternaria test (tomato)/protective; details: protective, 100 ppm, evaluation 3 days after inoculation
Procedure: [table] To produce a suitable preparation of active compound, 1 part by weight of active compound is mixed with the stated amounts of solvent and emulsifier, and the concentrate is diluted with water to the desired concentration. To test for protective activity, young plants are sprayed with the preparation of active compound at the stated application rate. After the spray coating has dried on, the plants are inoculated with an aqueous spore suspension of Alternaria solani. The plants are then placed in an incubation cabin at about 20° C. and 100% relative atmospheric humidity.

[4] = test system: Venturia inaequalis; assay: Venturia test (apple)/protective; details: protective, active compound concentration 100 ppm, evaluation 10 days after inoculation
[5] = test system: Blumeria graminis f.sp. hordei; assay: Blumeria graminis test (barley)/protective; details: protective, active compound concentration 500 ppm, evaluation 7 days after inoculation
[6] = test system: Puccinia triticina; assay: Puccinia triticina test (wheat)/protective; details: protective, active compound concentration 1000 ppm, evaluation 8 days after inoculation

CC(C)C(O)(COc1ccc(Br)cc1)c1cncnc1 (stereo not drawn) [Compound 21]
≥ 70%: efficacy [1] | efficacy [2]

OC(COc1ccc(I)cc1)(c1cncnc1)C1(F)CC1 (stereo not drawn) [Compound 37]
≥ 70%: efficacy [1] | efficacy [2] | Efficacy in % [3] | efficacy [4]

CC(C)(C)C(O)(CSc1ccc(Br)cc1)Cn1cncn1 (stereo not drawn) [Compound 2]
≥ 70%: efficacy [1] | efficacy [2] | Efficacy in % [3] | efficacy [4] | efficacy [5] | efficacy [6]

CC(C)(C)C(O)(COc1ccc(Br)cc1)c1cncnc1 (stereo not drawn) [Compound 11]
≥ 70%: efficacy [1] | efficacy [2] | efficacy [4] | efficacy [5] | efficacy [6]

CC(C)(C)C(O)(CSc1ccc(I)cc1)Cn1cncn1 (stereo not drawn) [Compound 3]
≥ 70%: efficacy [1] | efficacy [2] | Efficacy in % [3] | efficacy [4] | efficacy [5] | efficacy [6]

OC(COc1cccc(Br)c1)(c1cncnc1)C1(F)CC1 (stereo not drawn) [Compound 35]
≥ 70%: efficacy [1] | efficacy [2]

CC(C)(C)C(O)(COc1ccc(I)cc1)Cn1cncn1 (stereo not drawn) [Compound 1]
≥ 70%: efficacy [1] | efficacy [2] | efficacy [4] | efficacy [5] | efficacy [6]

OC(COc1cccc(Br)c1)(c1cccnc1)C1(F)CC1 (stereo not drawn) [Compound 36]
≥ 70%: efficacy [1] | efficacy [2]

OC(COc1ccc(Br)cc1)(c1cncnc1)C1(F)CC1 (stereo not drawn) [Compound 23]
≥ 70%: efficacy [1] | efficacy [2] | Efficacy in % [3] | efficacy [4]

CC(C)(C)C(O)(CSc1ccc(Br)cc1)c1cncnc1 (stereo not drawn) [Compound 13]
≥ 70%: efficacy [1] | efficacy [2]

CC(C)(C)C(O)(Cn1cncn1)C[S+]([O-])c1ccc(Br)cc1 (stereo not drawn) [Compound 4]
≥ 70%: efficacy [1]

CC(C)(C)C(O)(COc1cccc(Br)c1)c1cncnc1 (stereo not drawn) [Compound 33]
≥ 70%: efficacy [1] | efficacy [2] | Efficacy in % [3] | efficacy [5]

CC(C)(C)C(O)(CCc1ccc(Br)cc1)c1cccnc1 (stereo not drawn) [Compound 30]
≥ 70%: efficacy [1] | efficacy [2]
